From paper PMC7819943, “Rice protein-binding microarrays: a tool to detect cis-acting elements near promoter regions in rice”
The list shows a part of the results.

Chains of the proteins cited; added tags and fusions are not shown.
UniProt Q0JBA9, entry or part of it: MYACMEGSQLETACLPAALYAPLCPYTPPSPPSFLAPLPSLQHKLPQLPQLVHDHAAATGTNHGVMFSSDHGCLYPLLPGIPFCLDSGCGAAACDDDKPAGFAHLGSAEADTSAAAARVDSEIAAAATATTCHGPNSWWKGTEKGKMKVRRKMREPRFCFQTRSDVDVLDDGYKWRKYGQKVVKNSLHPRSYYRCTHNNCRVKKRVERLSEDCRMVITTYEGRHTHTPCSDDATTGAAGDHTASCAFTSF

The sequences below were run against OsWRKY34 (Oryza sativa, UniProt Q0JBA9 1-250) (assay: protein-binding microarray (RPBM); PBS, 2% BSA, 51.3 ng/ul salmon testes DNA, 50 uM zinc acetate, 200 nM TF, 25 C, 1 h; high values mean tight binding). Settings: protein: recombinant; tags: N-terminal polyhistidine and DsRed monomer fusion (pET32a); label: CyDye5-dUTP incorporated in the synthesized complementary strand; 3' TTTTT single-stranded linker to array surface; dsDNA, one strand shown.
Outline: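 Polyhistidine-tagged DsRed fusions of transcription factors, joined at the N-terminus, were expressed in E. coli BL21-CodonPlus and isolated on Ni–NTA. They were incubated at 200 nM for 1 h at 25 °C on a custom Agilent array, double-stranded and BSA-blocked, in PBS with 2% BSA, salmon testes DNA and 50 µM zinc acetate. The binding signal is per-feature fluorescence intensity (arbitrary units) read on an Axon 4000B scanner after washing.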

Sequence	binding signal
GAGCACTGTCGTTACTTTTTTCTTTTGGAACCAACACTGTCGGAGTCACCTAGTGCAG	11100 fluorescence intensity (a.u.)
ACAGCTCACTTTCTTGGCCTCCTTCCTTTCCAGCTCGGTTCGGAGTCACCTAGTGCAG	11000 fluorescence intensity (a.u.)
GAAAAGTTGTTGTACCCAAATTTTCCAAATTGTTTTTTTTCGGAGTCACCTAGTGCAG	8030 fluorescence intensity (a.u.)
TTCCTTCGGCGTTTTTTCATCCATGACCGGGTACATGACACGGAGTCACCTAGTGCAG	12000 fluorescence intensity (a.u.)
TCCACCACCACCACCATGCATCACCACGTAGACAAATTCACGGAGTCACCTAGTGCAG	9840 fluorescence intensity (a.u.)
TAACAGTATCATTTGATAGCACAATATAAGGTGTTTTGCTCGGAGTCACCTAGTGCAG	28800 fluorescence intensity (a.u.)
AACACGCACGCGCCCGCGCACGAGCTTATCTTTTGCCAACCGGAGTCACCTAGTGCAG	9620 fluorescence intensity (a.u.)
ATTCAAAGTGTACCCATTTGTGTTTTTTTTACACGTGAAGCGGAGTCACCTAGTGCAG	8860 fluorescence intensity (a.u.)
GGTTAGGTGGCATTTGAATTTAAAACGTATATGTGGACTCCGGAGTCACCTAGTGCAG	13900 fluorescence intensity (a.u.)
ACTTTCTCTTCTCAACCAATCACATACTTCCTCTAATCATCGGAGTCACCTAGTGCAG	9900 fluorescence intensity (a.u.)
ATGCACATCCTCGTGCCCTCCATCTCCAACCACGACTTGACGGAGTCACCTAGTGCAG	8140 fluorescence intensity (a.u.)
CCTCATCCCGTCCAGCGTTCACCCGACGTCGCCCGTCGCACGGAGTCACCTAGTGCAG	10500 fluorescence intensity (a.u.)
CCGTCATTGCCACCGGCCTCTGCCGCAAGCGCCGCTCCCGCGGAGTCACCTAGTGCAG	9690 fluorescence intensity (a.u.)
GTTATGAGATTAGTTTTTTTATTCGTGTCCGAAAATCACTCGGAGTCACCTAGTGCAG	9890 fluorescence intensity (a.u.)
CAATGCTGATATATCCAATATGCTGTCTGTTATGATACATCGGAGTCACCTAGTGCAG	8820 fluorescence intensity (a.u.)
CATCCGACCTCAACTCCTCTGTCCTCTACTACGCATCTCTCGGAGTCACCTAGTGCAG	14100 fluorescence intensity (a.u.)
ATAGGGTGTAATTTATTTTCGGATTTGCTACATCTCTGTCCGGAGTCACCTAGTGCAG	8080 fluorescence intensity (a.u.)
TCCTCCACTGCTGCCGCCCACCTCTCCGTATCAGCTGCGTCGGAGTCACCTAGTGCAG	8300 fluorescence intensity (a.u.)
AGTAACAAACTCGATGCATGCACCATCCCCACTATTCCCTCGGAGTCACCTAGTGCAG	11100 fluorescence intensity (a.u.)
ACCTATAGTCACTAGCTAGCTCGATCCAGCTCCTCACCTCCGGAGTCACCTAGTGCAG	8310 fluorescence intensity (a.u.)
TATGGGTTGCTCGATCTTTCTATAAATAATAACGCTACTCCGGAGTCACCTAGTGCAG	8220 fluorescence intensity (a.u.)

Looked up above:
GTTATGAGATTAGTTTTTTTATTCGTGTCCGAAAATCACTCGGAGTCACCTAGTGCAG | binding signal: 9890 fluorescence intensity (a.u.)
TAACAGTATCATTTGATAGCACAATATAAGGTGTTTTGCTCGGAGTCACCTAGTGCAG | binding signal: 28800 fluorescence intensity (a.u.)

Continued:

Sequence	binding signal
GCGGTTTTGATCCCGGTTTTGTCCTACATGGCTGCTGAGTCGGAGTCACCTAGTGCAG	10500 fluorescence intensity (a.u.)
GAGTACATGCATTATATTAGGCAATCACCATTTTGTAAACCGGAGTCACCTAGTGCAG	8570 fluorescence intensity (a.u.)
CGAAGCCGCACGAAGGTGGTGGTGGTTGGTGGTAGGGTTTCGGAGTCACCTAGTGCAG	8030 fluorescence intensity (a.u.)
ATTTCTGCCTAGTACGTGTTCGATCGGTGTTCCACGGTGACGGAGTCACCTAGTGCAG	10500 fluorescence intensity (a.u.)
GCAGTGCCATGTTCTTGAGTTTCTTTCGGTTTTTTTAATCCGGAGTCACCTAGTGCAG	10500 fluorescence intensity (a.u.)
GGGTGAGCACATCTGAAGAGACTTTCTTTTATATTCATTCCGGAGTCACCTAGTGCAG	9680 fluorescence intensity (a.u.)
CGTTACATTAGCCACCGCCGCTGCCACCACGGGCGCTGCCCGGAGTCACCTAGTGCAG	9630 fluorescence intensity (a.u.)
GTCTCTTTCCGCTGCTTCGTTTCTGTCTCCGGTTTATTCACGGAGTCACCTAGTGCAG	18800 fluorescence intensity (a.u.)
GACACCACCGCCGCCGCCGTCCTCGTCATCTCCAGATCGCCGGAGTCACCTAGTGCAG	9850 fluorescence intensity (a.u.)
CCACCCCAACCACCATCTCACTGCCAGTGGGCCCGAACCCCGGAGTCACCTAGTGCAG	11200 fluorescence intensity (a.u.)
CACCCATACATGAGTCCACTTCGAGTTGTCCTCTGTTGAACGGAGTCACCTAGTGCAG	8660 fluorescence intensity (a.u.)
TATGTGTCTGTTTCGCTCCGTTTTTGTTCATTAACCCGGTCGGAGTCACCTAGTGCAG	10700 fluorescence intensity (a.u.)
GTCAAATTTCTGTGCTCCATAAGATCTCTTCTCTTTTTTTCGGAGTCACCTAGTGCAG	16700 fluorescence intensity (a.u.)
GCTGACTACTCCCTACATCTCCTGATTTCTGGATATCTTGCGGAGTCACCTAGTGCAG	8170 fluorescence intensity (a.u.)
TGTAGTCCCGCGTCGCACGGCATCCGGCCGGCCTCTCCTACGGAGTCACCTAGTGCAG	8760 fluorescence intensity (a.u.)
AGCTTAGCCACTGCATGTCTGTTAGTACTAATAATAATTTCGGAGTCACCTAGTGCAG	10100 fluorescence intensity (a.u.)
GTTGAGCGCTGCTTCTGCAAATAATGTCCCCATCGATCGACGGAGTCACCTAGTGCAG	8960 fluorescence intensity (a.u.)
GGCCTATTCATTAGCGCTTACTTGTGGTGCACTATTTTGTCGGAGTCACCTAGTGCAG	10300 fluorescence intensity (a.u.)
ACTTAACCCATGCCAACTTCTTCTCTCTCTCTCTCTTCTCCGGAGTCACCTAGTGCAG	8940 fluorescence intensity (a.u.)
ATGTGGGCGGGTGGGTGTTCGTGTCTCCGCTTGTCTCCCCCGGAGTCACCTAGTGCAG	14900 fluorescence intensity (a.u.)
GGTGGGAAGTTGTAGTCTAGGAAGTGATTGATATTTGAGCCGGAGTCACCTAGTGCAG	8910 fluorescence intensity (a.u.)

Quoted at random: 2 entries already listed, in no set order.
Sequence	binding signal
GTCTCTTTCCGCTGCTTCGTTTCTGTCTCCGGTTTATTCACGGAGTCACCTAGTGCAG	18800 fluorescence intensity (a.u.)
GCGGTTTTGATCCCGGTTTTGTCCTACATGGCTGCTGAGTCGGAGTCACCTAGTGCAG	10500 fluorescence intensity (a.u.)
